These are yes or no findings as the source states them, for the method shown. In cells and extracts the contact can be indirect. For some assays here: Binding calls can cover weak binding; strength is not graded here.

Protein sequences, listed by entry. Tags and fused reporters are not part of them. Lines headed by an entry give the natural chain unless they say otherwise; changes in a name come on top.
UniProt Q92547: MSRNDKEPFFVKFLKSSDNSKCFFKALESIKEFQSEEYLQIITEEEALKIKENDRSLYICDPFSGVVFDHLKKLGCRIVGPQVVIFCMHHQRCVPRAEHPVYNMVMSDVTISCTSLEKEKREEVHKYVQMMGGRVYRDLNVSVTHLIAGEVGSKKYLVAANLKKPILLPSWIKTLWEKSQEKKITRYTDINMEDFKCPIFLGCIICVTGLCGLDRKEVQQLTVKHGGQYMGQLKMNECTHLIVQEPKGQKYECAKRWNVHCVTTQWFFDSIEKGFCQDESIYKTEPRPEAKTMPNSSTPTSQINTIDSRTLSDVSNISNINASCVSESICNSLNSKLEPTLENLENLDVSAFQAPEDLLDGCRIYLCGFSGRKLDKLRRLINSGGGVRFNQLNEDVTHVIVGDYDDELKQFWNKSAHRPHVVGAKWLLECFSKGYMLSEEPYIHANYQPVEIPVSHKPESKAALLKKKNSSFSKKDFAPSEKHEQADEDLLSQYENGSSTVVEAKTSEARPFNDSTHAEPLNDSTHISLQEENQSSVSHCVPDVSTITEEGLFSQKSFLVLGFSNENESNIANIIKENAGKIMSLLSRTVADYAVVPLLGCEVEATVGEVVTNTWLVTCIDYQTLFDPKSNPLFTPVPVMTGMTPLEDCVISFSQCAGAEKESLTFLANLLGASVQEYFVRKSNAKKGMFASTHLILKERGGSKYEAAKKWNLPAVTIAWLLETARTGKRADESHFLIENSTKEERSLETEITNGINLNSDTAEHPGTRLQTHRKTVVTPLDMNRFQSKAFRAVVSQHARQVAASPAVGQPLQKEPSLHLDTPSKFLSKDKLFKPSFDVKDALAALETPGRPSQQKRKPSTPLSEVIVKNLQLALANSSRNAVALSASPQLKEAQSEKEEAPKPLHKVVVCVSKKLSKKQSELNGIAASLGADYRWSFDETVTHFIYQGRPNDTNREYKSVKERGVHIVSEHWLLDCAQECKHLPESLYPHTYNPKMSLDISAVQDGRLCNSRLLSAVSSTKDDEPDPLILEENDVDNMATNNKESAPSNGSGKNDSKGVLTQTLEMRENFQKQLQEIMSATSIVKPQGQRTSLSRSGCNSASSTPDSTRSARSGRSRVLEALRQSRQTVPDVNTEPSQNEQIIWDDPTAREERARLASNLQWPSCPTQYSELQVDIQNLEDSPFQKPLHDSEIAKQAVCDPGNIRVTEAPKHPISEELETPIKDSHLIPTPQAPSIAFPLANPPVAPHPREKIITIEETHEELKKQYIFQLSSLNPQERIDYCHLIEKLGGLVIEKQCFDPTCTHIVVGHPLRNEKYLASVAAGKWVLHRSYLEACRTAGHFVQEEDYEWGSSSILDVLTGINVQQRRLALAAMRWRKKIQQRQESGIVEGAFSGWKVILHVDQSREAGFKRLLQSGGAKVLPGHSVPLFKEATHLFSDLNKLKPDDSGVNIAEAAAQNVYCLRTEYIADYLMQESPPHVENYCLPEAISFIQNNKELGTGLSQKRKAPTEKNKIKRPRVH

One assay addresses GST-TOPBP1 BRCT0-2. The assay is described as follows: pull-down; 5 µg purified GST-TOPBP1 BRCT fusion protein mixed with 33 µl HeLa nuclear extract (7 mg/ml), 1.5 h at 4 °C, glutathione-Sepharose; wash 50 mM Tris pH 7.5, 150 mM NaCl, 1 mM DTT, 0.2% NP-40; only the target purified.
Assay [1] has as its target GFP-tagged full-length TOPBP1, BRCT2 mutant (Lys to Ala) (UniProt Q92547). In words: co-IP; GFP-tagged TOPBP1 constructs captured on GFP-Trap magnetic agarose from Benzonase-treated lysates of transfected 293FT cells (200 mM NaCl, 2 mM EDTA, 4 °C); endogenous partners detected by blot.

B1: Treacle, endogenous (HeLa nuclear extract) (protein, UniProt Q13428 1-1488)
chain: MAEARKRRELLPLIYHHLLRAGYVRAAREVKEQSGQKCFLAQPVTLLDIYTHWQQTSELGRKRKAEEDAALQAKKTRVSDPISTSESSEEEEEAEAETAKATPRLASTNSSVLGADLPSSMKEKAKAETEKAGKTGNSMPHPATGKTVANLLSGKSPRKSAEPSANTTLVSETEEEGSVPAFGAAAKPGMVSAGQADSSSEDTSSSSDETDVEGKPSVKPAQVKASSVSTKESPARKAAPAPGKVGDVTPQVKGGALPPAKRAKKPEEESESSEEGSESEEEAPAGTRSQVKASEKILQVRAASAPAKGTPGKGATPAPPGKAGAVASQTKAGKPEEDSESSSEESSDSEEETPAAKALLQAKASGKTSQVGAASAPAKESPRKGAAPAPPGKTGPAVAKAQAGKREEDSQSSSEESDSEEEAPAQAKPSGKAPQVRAASAPAKESPRKGAAPAPPRKTGPAAAQVQVGKQEEDSRSSSEESDSDREALAAMNAAQVKPLGKSPQVKPASTMGMGPLGKGAGPVPPGKVGPATPSAQVGKWEEDSESSSEESSDSSDGEVPTAVAPAQEKSLGNILQAKPTSSPAKGPPQKAGPVAVQVKAEKPMDNSESSEESSDSADSEEAPAAMTAAQAKPALKIPQTKACPKKTNTTASAKVAPVRVGTQAPRKAGTATSPAGSSPAVAGGTQRPAEDSSSSEESDSEEEKTGLAVTVGQAKSVGKGLQVKAASVPVKGSLGQGTAPVLPGKTGPTVTQVKAEKQEDSESSEEESDSEEAAASPAQVKTSVKKTQAKANPAAARAPSAKGTISAPGKVVTAAAQAKQRSPSKVKPPVRNPQNSTVLARGPASVPSVGKAVATAAQAQTGPEEDSGSSEEESDSEEEAETLAQVKPSGKTHQIRAALAPAKESPRKGAAPTPPGKTGPSAAQAGKQDDSGSSSEESDSDGEAPAAVTSAQVIKPPLIFVDPNRSPAGPAATPAQAQAASTPRKARASESTARSSSSESEDEDVIPATQCLTPGIRTNVVTMPTAHPRIAPKASMAGASSSKESSRISDGKKQEGPATQVSKKNPASLPLTQAALKVLAQKASEAQPPVARTQPSSGVDSAVGTLPATSPQSTSVQAKGTNKLRKPKLPEVQQATKAPESSDDSEDSSDSSSGSEEDGEGPQGAKSAHTLGPTPSRTETLVEETAAESSEDDVVAPSQSLLSGYMTPGLTPANSQASKATPKLDSSPSVSSTLAAKDDPDGKQEAKPQQAAGMLSPKTGGKEAASGTTPQKSRKPKKGAGNPQASTLALQSNITQCLLGQPWPLNEAQVQASVVKVLTELLEQERKKVVDTTKESSRKGWESRKRKLSGDQPAARTPRSKKKKKLGAGEGGEASVSPEKTSTTSKGKAKRDKASGDVKEKKGKGSLGSQGAKDEPEEELQKGMGTVEGGDQSNPKSKKEKKKSDKRKKDKEKKEKKKKAKKASTKDSESPSQKKKKKKKKTAEQTV
As for B1, in the assay with GST-TOPBP1 BRCT0-2, the binding result is “binds”.

B2: Treacle, endogenous (293FT) (protein, UniProt Q13428 1-1488)
chain: B1 chain
Turning to B2, the binding result in assay [1] is given as “no binding”.

Source of the values: article PMC6949271.
